Screen size: about 2,800 compounds; fewer than 10 were called active. About 7% were inconclusive and are not listed. Calls follow the shape of the dose curve; as a rule, active = well fitted inhibition curve with a large enough effect; inconclusive = small, poorly fitted or top-dose-only effect; inactive = no such curve, though single readings can be large or run the other way. The list shows a part of the results.
Molecular target: Metallo-beta-lactamase type 2 (Klebsiella pneumoniae) (UniProt C7C422)
Test: qHTS to identify inhibitors of the New Delhi Metallo-beta-lactamase (NDM): Nitrocefin screen against the machine-based learning selections. Also: % of control where 0% means no effect.
Settings: NDM-1 enzyme, nitrocefin hydrolysis, absorbance 485 nm; activity, negative = inhibition: at the top concentration
Outline: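 Hydrolysis by 2 nM NDM-1 was followed by absorbance after >30 min compound preincubation in HEPES pH 7.0 buffer with 1 uM Zn2SO4. For nitrocefin (16.7 uM, 15 min, 485 nm) and meropenem (50 uM, 30 min, 300 nm), each substrate ran on separate plates.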

Chains of the proteins cited; added tags and fusions are not shown. Lines headed by an entry give the natural chain unless they say otherwise; changes in a name come on top.
UniProt C7C422: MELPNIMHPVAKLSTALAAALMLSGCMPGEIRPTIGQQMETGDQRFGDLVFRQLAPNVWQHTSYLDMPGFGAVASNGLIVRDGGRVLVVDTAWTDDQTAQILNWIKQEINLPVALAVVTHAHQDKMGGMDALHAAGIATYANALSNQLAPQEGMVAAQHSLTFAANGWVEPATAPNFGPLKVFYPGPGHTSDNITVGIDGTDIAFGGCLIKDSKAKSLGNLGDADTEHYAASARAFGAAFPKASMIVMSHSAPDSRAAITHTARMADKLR

activity, negative = inhibition, inactive:
O=C(NCCc1ccc(F)cc1)C1CN(c2ccccc2)C(=O)N1 (stereo not drawn) -12.5% [at 57.5 µM]
CCCC1c2nccn2CCCN1C(=O)c1ccoc1C (stereo not drawn) -4.1%
CC(=O)N[C@@H]1C=C[C@@H](c2c(C)nn(-c3ccc(C)c(Cl)c3)c2C)C1 2.31% [at 57.5 µM]
Cc1c(-c2ccc(F)cc2)[nH]c2ccc(CNC(=O)c3n[nH]c4c3CCCC4)cc12 -3.45%
CC1=C[C@@H](CNC(=O)c2ccc(F)cc2)[C@H](C(C)C)C[C@H]1Cc1nnc(-c2ccncc2)o1 -0.0763%
CC(=O)N[C@H]1C[C@@H](Cc2cc(CN3CCCCC3)on2)C1(C)C 1.39% [at 57.5 µM]
O=C1Cc2c(-c3cccc4ccccc34)n[nH]c2CN1Cc1ccccc1 -0.476% [at 57.5 µM]
O=C1[C@H]2CN(S(=O)(=O)c3ccc(F)cc3)CCN2C(=O)N1CCO -0.29% [at 57.5 µM]
COc1ccccc1-c1[nH]nc2ncc(C(=O)NCCc3ccccn3)nc12 -18.2% [at 57.5 µM]
CC(C)(O)CCc1cccc(C(=O)NCC(O)c2ccccc2Cl)c1 (stereo not drawn) -1.23%
CCn1nc(CC(C)C)cc1C(=O)N1CCN(CCn2cccc2)CC1 -28%
CC(=O)c1ccc(NC(=O)N2C[C@@H]3C[C@H](C2)c2ccc(NC(=O)C4CCCCC4)c(=O)n2C3)cc1 -1.96%
CS(=O)(=O)N1C[C@H]2CCN(C(=O)c3ncccc3F)C[C@H]21 -3.35%
O=C(c1cn2ccccc2n1)N1C[C@@H](CO)[C@H](c2ccncc2)C1 -5.49%
CCC(=O)N1CCC(c2nc(C3CCOCC3)no2)C1 (stereo not drawn) -0.448%
COc1cccc(C(=O)N2CCOC[C@H](Oc3cccnc3)C2)c1 -4.33% [at 57.5 µM]
c1ccc(-c2cc3c(cn2)CN(Cc2ccc4[nH]ccc4c2)CCN3)cc1 6.79% [at 57.5 µM]
Cc1oc(C(O)c2cccc(O)c2)nc1C(=O)Nc1ccc2c(c1)CNC2=O (stereo not drawn) 7.37% [at 57.5 µM]
COc1ccc(CN2CCNc3cc(Nc4ccccc4)ncc3C2)cc1 3.46% [at 57.5 µM]
CC(C)=CC(=O)N1CC[C@H](NC(=O)Nc2ccc(F)cc2F)[C@H]1C(=O)N[C@@H](Cc1cccs1)C(N)=O -2.77%
CC(C)(C)c1ccc(-c2cc(C[C@H]3CNCC[C@H]3CC(=O)NCc3ccc(F)cc3)no2)cc1 2.12%
O=C(NC1CC(c2nnc(CO)n2C2CC2)C1)c1ccc(F)cc1Cl (stereo not drawn) 0.365%
O=C1COc2cc(C(=O)NCC3CCOc4ccccc4C3)ccc2N1 (stereo not drawn) 3.67%
Cn1cc(CN2CCOC[C@H](Oc3ccc(S(C)(=O)=O)cc3)C2)c2ccccc21 8.21% [at 57.5 µM]
OCC1CNCCC12CCN(Cc1ccc3ccccc3c1)CC2 (stereo not drawn) -5.86%
OC(c1ccccc1)c1nc(Nc2ccc(Cl)cc2F)n[nH]1 (stereo not drawn) 4.51% [at 57.5 µM]
Cc1nc(N)nc(C)c1CC(=O)N1CC[C@@H](NC(=O)c2cccnc2)[C@H](O)C1 -0.0238%
CN(C)C(C(=O)N1CCN(Cc2nccn2C)CC1)c1cccc(F)c1 (stereo not drawn) 0.958%
CCc1nncn1C1CCN(S(=O)(=O)c2ccc(F)cc2)CC1 0.342%
COc1ccccc1C(=O)N[C@H]1[C@H](O)[C@H](O)C[C@@H]1c1ccc(N2CCOCC2)nc1 6% [at 57.5 µM]
COc1ccc(CN2C[C@H]3CN(Cc4cnn(C)c4)CCN3C2=O)cc1 7.09% [at 57.5 µM]
NC(=O)NCc1cn(C2CCN(Cc3cc4ccccc4s3)CC2)nn1 -20.2%
Cc1noc2c(-c3cccc(O)c3)cc(-c3ccccc3)nc12 -0.559% [at 57.5 µM]
O=C(c1cccnc1)N1CC[C@H](c2nnc(Cc3ccccc3)o2)C1 -2.68% [at 57.5 µM]
CN(C)CCN(C)CC[C@H]1CN(C(=O)c2ccc(F)cc2)CC[C@H]1CC(=O)O -14.9% [at 57.5 µM]
COc1ccc(CN2CC3(C2)C(=O)N(Cc2cccc(Cl)c2)C(=O)[C@@H]2C[C@@H](O)CN23)c2ccccc12 -1.33%
CC(C)C[C@@H]1N[C@H](C(=O)NC(C)C)Cc2cn(Cc3ccncc3)c3cccc1c23 -5.22% [at 57.5 µM]
CCn1cc(CN2CCC(Oc3ccc4ccccc4c3)(C(=O)O)CC2)cn1 16.2%
Oc1ccccc1CN1CCNc2cc(Nc3ccccc3)ncc2C1 4.38% [at 57.5 µM]
CC(C)c1cc(CN(C)C(=O)CN2C(=O)COc3cccnc32)on1 -2.41%
Fc1ccc(-c2nnc3ccc(NC4CCC4)nn23)nc1 -8.05% [at 76.7 µM]
COc1cc2c(cc1OC)CN(C(=O)C[C@@H]1CCNC[C@@H]1Cc1cc(CN3CCCCC3)on1)CC2 6.01%
CC1(C(=O)NCc2ccccc2)COCc2cnc(Nc3ccccc3)nc21 (stereo not drawn) 0.282% [at 57.5 µM]
CSCC(=O)Nc1ccc2n(c1=O)C[C@H]1C[C@@H]2CN(C(=O)c2ccc(-c3ccccc3)cc2)C1 5.52%
O=C(c1ccccc1Cl)N1CCC2(CC1)Cc1ccccc1NC2=O 1.65%
CCn1cc(C(=O)N2CCCC(CCc3cccc(F)c3)C2)cn1 (stereo not drawn) -0.423%
Cc1ccc(N2CCN(C(=O)C3CCCN(c4cnn(Cc5ccccc5)c(=O)c4)C3)CC2)cc1 (stereo not drawn) -5.13%
Cc1ccsc1-c1[nH]nc2ncc(-c3ccccc3O)nc12 -4.04% [at 57.5 µM]
COc1cccc(-c2cc(C(=O)O)cc(S(=O)(=O)NC(C)C)c2)c1 0.733%
CC[C@H]1CN(Cc2ccc(OC)cc2O)CC[C@H]1CC(=O)N(C)CC#N 1.85% [at 57.5 µM]
CCOCCN1C(=O)COC[C@@H]1[C@H](O)c1ccc(NC(=O)Nc2ccccc2)cc1 -10.5% [at 57.5 µM]
NC(=O)CN1C(=O)[C@@H]2CN(C(=O)CC3(CC(=O)O)CCCC3)CCN2C1=O 0.97% [at 57.5 µM]
O=c1c2nc(NCc3cccs3)ccc2ncn1Cc1ccccc1 0.467% [at 57.5 µM]
NC(=O)c1cccc(-c2cc(-c3cccnc3)c3cncn3c2)c1 10% [at 57.5 µM]
Cc1ccc2c(c1)C(C[C@H]1CN(C(=O)NC(C)C)CC[C@H]1CC(=O)O)=NCC2 -8.19% [at 57.5 µM]
CC(C)NC(=O)CC[C@@H]1CNC(=O)[C@@H]2C[C@H](NCc3ccc(CO)o3)CN12 -20.1% [at 57.5 µM]
NC(=O)Cc1c[nH]c2ncc(-c3cccc(F)c3)cc12 7.99% [at 76.7 µM]
C[C@H]1[C@@H]2[C@H]3OC(=O)[C@@H](C)[C@@H]3CC[C@@]2(C)CC[C@@H]1NC(=O)Cc1ccccc1 0.93% [at 57.5 µM]
CN1C(=O)C(c2ccccc2)CC12CCN(C(=O)c1cccc(F)c1)CC2 (stereo not drawn) 5.03%
O=C(CC[C@@H]1CNC(=O)[C@@H]2C[C@H](NCc3ccc(F)cc3)CN12)NCc1ccccc1 -3.97% [at 57.5 µM]
COC[C@@H]1CN(C(=O)Cc2ccc(OC)cc2)C[C@H]1c1nc(C)no1 -1.17%
O=C(NCC1(O)CCCCC1)c1ccc2nc(Cc3ccccc3F)oc2c1 -3.38%
OC1(CNCCc2nc(-c3cccnc3)n[nH]2)CNCCOC1 (stereo not drawn) 10.7%
COc1ccc(-c2ccnc(N[C@H]3CO[C@H]4[C@@H]3OC[C@@H]4NC(=O)c3ccc(C)cc3)n2)cc1 -10.1%
COc1ccc(Cl)cc1-c1ccc2c(c1)C(=O)N1CC[C@H](N)C[C@H]1C(=O)N2 -2.65% [at 57.5 µM]
COCCCNC(=O)N1CCc2nn(CC3CC3)c(=O)n2CC1 -3.32%
O=C(O)c1ccc(CN2CCC[C@H]2c2nc(-c3ccc(F)cn3)no2)cc1 -13% [at 57.5 µM]
O=C(c1ccccc1-n1cncn1)N1CCC(N2CCCC2=O)CC1 -0.296%
O=C(N[C@@H](CO)c1ccccc1)c1cc(COc2cccc(F)c2)[nH]n1 -0.764%
Cc1nc2ccc(CNC(=O)c3cccc(CCC(C)(C)O)c3)cc2[nH]1 2.21%
CN1[C@@H](CCC(=O)N2CCN(c3ccccc3)CC2)CNC(=O)[C@@H]2[C@H]1CCN2Cc1ccccc1 -13.7%
COc1cc(SC)ccc1C(=O)N[C@H]1CCN2C(=O)[C@@H](CC(C)C)NC(=O)[C@@H]2C1 2.74% [at 57.5 µM]
NC(=O)CN1CCC(C(=O)NCc2cc(-c3ccc(Cl)cc3)on2)CC1 -4.79%
Cc1ccsc1-c1[nH]nc2ncc(-c3cn[nH]c3)nc12 15.8% [at 76.7 µM]
COc1ccccc1-c1noc(CCC(=O)N2CCC(Cc3noc(C)n3)CC2)n1 -12%
COc1ccc(-c2cnc([C@@H]3COCCN3Cc3cn(C)c4ccccc34)[nH]2)cc1 -5.82% [at 57.5 µM]
Cc1ncnc(N2CCC(Oc3ccc4ccccc4c3)(C(=O)O)CC2)c1C 0%
O=C(c1ccccc1)N1CCC(NCCN2CCCCC2CO)CC1 (stereo not drawn) -0.201%
C#CCN(C)CC[C@@H]1CC[C@H](O)[C@@H](C(=O)N(C)Cc2ccccc2)O1 -0.239% [at 57.5 µM]
CC(C)N1CCC(O)(c2csc(CN3CCN(C)CC3)n2)CC1 2.11% [at 57.5 µM]
Oc1ccccc1CN1CCNc2cnc(Oc3ccccc3)cc2C1 -3.99% [at 57.5 µM]
CCOc1ccccc1-n1c(Cc2ccc(O)cc2)n[nH]c1=O -4.89%
Cc1csc(NC(=O)c2nc(C(O)c3cccc(O)c3)oc2C)n1 (stereo not drawn) -6.2% [at 57.5 µM]
Cn1c(CO[C@H]2CN(C(=O)c3cccnc3)C[C@H]2F)nc2ccccc21 0.8% [at 57.5 µM]
OC1CC([C@H](NC2CSCCSC2)c2ccc3c(c2)CCO3)C1 (stereo partly drawn) -2.88%
c1cncc(-c2ccnc(NCCCN3CCCc4ccccc43)n2)c1 0.235%
CS(=O)(=O)N1C[C@@H]2OCC(=O)N(Cc3cccnc3)[C@@H]2C1 -1.51% [at 57.5 µM]
COC(=O)[C@H]1CN(C(=O)c2cccnc2)CCN1C(=O)C1CCCCC1 2.03% [at 57.5 µM]
O=C(O)CCCC(=O)N1C[C@@H](C(=O)O)[C@H](c2ccc3c(c2)OCO3)C1 12.1%
COC(=O)CNC(=O)C1CCN(C(=O)C2CN(c3cccc(OC)c3)C(=O)N2)C1 (stereo not drawn) 4.3%
O=C(CCc1c[nH]c2ccccc12)N1CCC(Oc2ncccc2C(=O)N2CCCCC2)C1 (stereo not drawn) -6.03%
O=C(Nc1ccccc1)N[C@H]1[C@H](O)[C@@H](N2CCN(c3ccccc3)CC2)[C@@H]2OC[C@H]1O2 -7.52% [at 57.5 µM]
C#CCN(C)Cc1nc(C2(O)CCN(CC3CCCCC3)CC2)cs1 2.2% [at 57.5 µM]
CCN(CC)Cc1cnc2c(C(=O)Nc3ccc(OC)c(OC)c3)cnn2c1 -1.36%
CC1(C(=O)NCc2cccnc2)CCCc2cnc(NCc3ccccc3)nc21 (stereo not drawn) -4.4% [at 57.5 µM]
Fc1ccccc1CNC1(Cc2cc(-c3ccccn3)on2)COC1 -0.401% [at 57.5 µM]
NC(=O)Cc1c[nH]c2ncc(-c3cccc(O)c3)cc12 3.42% [at 76.7 µM]
COc1ccc(CN2C(=O)[C@@H]3C[C@@H](CN3C3CCN(C)CC3)Oc3ccccc32)cc1 -0.134% [at 57.5 µM]

Structures listed so far that contain a furan ring, fused or not, in the order listed:
activity, negative = inhibition, inactive:
CCCC1c2nccn2CCCN1C(=O)c1ccoc1C (stereo not drawn) -4.1%
CC(C)NC(=O)CC[C@@H]1CNC(=O)[C@@H]2C[C@H](NCc3ccc(CO)o3)CN12 -20.1% [at 57.5 µM]

An excerpt from the list above:
activity, negative = inhibition, inactive:
Cc1ccc2c(c1)C(C[C@H]1CN(C(=O)NC(C)C)CC[C@H]1CC(=O)O)=NCC2 -8.19% [at 57.5 µM]
CC(C)NC(=O)CC[C@@H]1CNC(=O)[C@@H]2C[C@H](NCc3ccc(CO)o3)CN12 -20.1% [at 57.5 µM]

Source: PubChem BioAssay AID1794844 (National Center for Advancing Translational Sciences (NCATS), 2023)
